The source of these data is publication PMC11425205, “MdSINA2‐MdNAC104 Module Regulates Apple Alkaline Resistance by Affecting γ‐Aminobutyric Acid Synthesis and Transport”.

The exact form of at least one protein or probe is not confirmed. At least one verdict rests on a figure or table, not on a statement of the authors. Where a protein sequence is shown, tags need not be part of it.

The data set has as its target T1, MdNAC104 (UniProt D9ZJ88).
T1 sequence (looked up, limits assumed): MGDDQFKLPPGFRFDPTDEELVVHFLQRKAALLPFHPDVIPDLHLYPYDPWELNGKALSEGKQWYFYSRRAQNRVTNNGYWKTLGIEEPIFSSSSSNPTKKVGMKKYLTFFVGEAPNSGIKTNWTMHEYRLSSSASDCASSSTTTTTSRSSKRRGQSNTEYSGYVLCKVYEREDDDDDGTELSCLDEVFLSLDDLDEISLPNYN
The data set is described as follows: EMSA. The note with it: LightShift Chemiluminescent EMSA Kit (Thermo) per manufacturer; pH and temperature not stated; recombinant protein; protein details: His (pET-32a vector); label: 5' biotin.

In the case of “GCGACCATTGCACGCAGCACGCACACAGGA (double strand) [MdGAD3 probe 2/3]”, the binding result was “binds”.

Turning to “TAATAGAAATGAGCACGTTTGTTAACGTTA (double strand) [MdGAD3 probe 5]”, the binding result is “binds”.
